These are yes or no findings as the source states them, for the method shown. In cells and extracts the contact can be indirect. Some results given as binding are weak or reduced against the parent protein; the word gives no strength. Tags and fused reporters may be left off the sequences shown.
Target: myc-tagged kalirin-7 (pEAK10-His-Myc-Kal7) (UniProt P97924)
Assay: co-IP; lysates of HEK293 cells transfected singly with HA-NL1-AB, myc-Kal-7 or FLAG-DISC1 were mixed as indicated (with or without the third lysate), then immunoprecipitated; immunoblot

B1: mouse FLAG-myc-tagged DISC1 (protein, UniProt Q811T9 1-852)
chain: MQGGGPRGAPIHSPSHGADSGHGLPPAVAPQRRRLTRRPGYMRSTAGSGIGFLSPAVGMPHPSSAGLTGQQSQHSQSKAGQCGLDPGSHCQASLVGKPFLKSSLVPAVASEGHLHPAQRSMRKRPVHFAVHSKNDSRQSERLTGSFKPGDSGFWQELLSSDSFKSLAPSLDAPWNKGSRGLKTVKPLASPALNGPADIASLPGFQDTFTSSFSFIQLSLGAAGERGEAEGCLPSREAEPLHQRPQEMAAEASSSDRPHGDPRHLWTFSLHAAPGLADLAQVTRSSSRQSECGTVSSSSSDTGFSSQDASSAGGRGDQGGGWADAHGWHTLLREWEPMLQDYLLSNRRQLEVTSLILKLQKCQEKVVEDGDYDTAETLRQRLEELEQEKGRLSWALPSQQPALRSFLGYLAAQIQVALHGATQRAGSDDPEAPLEGQLRTTAQDSLPASITRRDWLIREKQRLQKEIEALQARMSALEAKEKRLSQELEEQEVLLRWPGCDLMALVAQMSPGQLQEVSKALGETLTSANQAPFQVEPPETLRSLRERTKSLNLAVRELTAQVCSGEKLCSSLRRRLSDLDTRLPALLEAKMLALSGSCFSTAKELTEEIWALSSEREGLEMFLGRLLALSSRNSRRLGIVKEDHLRCRQDLALQDAAHKTRMKANTVKCMEVLEGQLSSCRCPLLGRVWKADLETCQLLMQSLQLQEAGSSPHAEDEEQVHSTGEAAQTAALAVPRTPHPEEEKSPLQVLQEWDTHSALSPHCAAGPWKEDSHIVSAEVGEKCEAIGVKLLHLEDQLLGAMYSHDEALFQSLQGELQTVKETLQAMILQLQPTKEAGEASASYPTAGAQETEA
- binding: binds
